The values below come from US20070031511A1 (priority 2003, published 2007).

Data set [1] in a line: Quenching of peptide tryptophan fluorescence by ferric ions (stoichiometry, apparent Kd). The conditions noted are these: for Stoichiometry of ferric ion binding (amidated gastrin17 and related peptides): pH 4.0; for Stoichiometry of ferric ion binding (amidated gastrin17 and related peptides) / Stoichiometry of ferric ion binding: mean ± S.E.; for Stoichiometry of ferric ion binding: 10 mM sodium acetate pH 4.0, 100 mM NaCl, 0.005% Tween 20; for Binding of ferric ions: pH 4.0, fluorescence quenching. Type of data set: binding. The protocol:
The tryptophan fluorescence of peptide solutions was measured in 3 mL quartz cuvettes thermostated at […], with a Spex Fluorolog-2 spectrofluorimeter (Spex Industries, Edison, N.J.), with the excitation and emission wavelengths set at 290 and 345 nm, respectively. The quenching of tryptophan fluorescence induced by the binding of metal ions was used to calculate the fraction of binding sites occupied, fa: fa=(yf−y)/(yf−yb) where y is the fluorescence signal at a given concentration of metal ions and yb and yf are the signals when the binding sites are fully occupied and unoccupied, respectively (Winzor et al, 1995). The stoichiometry, p, and apparent dissociation constant, Kd, were then obtained, using the program Sigmastat (Jandel Scientific, San Rafael, Calif.), from the intercept and slope of a linear regression of the data transformed as described by Winzor and Sawyer (1995) in terms of the equation Cs/fa=pCa+Kd/(1−fa) where Cs is the total concentration of metal ions, and Ca is the total concentration of glycine-extended gastrin17. For the bismuth binding studies, the data was fitted by non-linear regression with the program Sigmaplot (Jandel Scientific, San Rafael, Calif.) to the equations for models with one binding site or two binding sites with identical affinities: fa=x/(Kd1+x) or to the model with two binding sites with different affinities: fa=(Kd1·x+Kd2·x+2x^2)/2(Kd1·Kd2+Kd1·x+Kd2·x+x^2) where x is the concentration of free metal ions, Kd1 is the first site dissociation constant and Kd2 is the second site dissociation constant. For the one-site model the value of x at any given total concentration of metal ions was obtained by exact solution of the appropriate quadratic (Malby et al, 2001). For the two-site models the value of x was obtained by an iterative Newton-Raphson procedure (Linse et al, 1991). Absorption Spectroscopy
The tryptophan fluorescence of progastrin6-80, glycine-extended gastrin17 and related peptides was measured in the presence of increasing concentrations of ferric ions in 10 mM sodium acetate, pH 4.0, 100 mM NaCl, 0.005% Tween 20. […] Values from the indicated number of independent experiments were combined to obtain the mean values (±S.E.) presented above. No binding of ferric ions to Ggly1-4 or Ggly12-18 was observed.
The tryptophan fluorescence of amidated gastrin17 and related peptides was measured in the presence of increasing concentrations of ferric ions at pH 4.0 (8). Values of the stoichiometry and the apparent dissociation constant (Kd) were obtained from linear transformations of the data presented in FIG. 20A by least squares fitting. Values from the indicated number of independent experiments were combined to obtain the mean values (±S.E.) presented above.

A short description of data set [2]: 1H NMR titration of Ggly fragments with ferric citrate. The format is binding. The following applies: 2 mole of added Fe3+/mole peptide, pH 5.3. The protocol:
The peptides LE5AYG, LE5A, E5AY and E5A (approximately 2 mM) were dissolved in H2O with 5 or 10% ^2H2O. […] Sequence-specific ^1H NMR resonance assignments were made from two-dimensional nuclear Overhauser enhancement spectroscopy (NOESY) and total correlation spectroscopy (TOCSY).
The apparent dissociation constants, Kd, for the complexes between ferric ions and the nonapeptide LE5AYG or the octapeptide LE5AY were obtained from the change in chemical shift of the Glu10 amide proton on addition of ferric citrate using the program Sigmaplot (Jandel Scientific, San Rafael, Calif.), by linear regression of the data to the equation 1/δ=Kd/Δ·1/[Fe^3+]+1/Δ where δ is the change in chemical shift, Δ is the maximum change in chemical shift, and [Fe^3+] is the concentration of added ferric ions. Measurement of Inositol Phosphate Production
In order to define the ligands involved in ferric ion binding, we next investigated the effect of ferric ions on the NMR spectra of the peptides. Ferric ion titration experiments were carried out by addition of 20, 50, or 200 mM ferric citrate solution to the peptides. The pH was maintained at 5.3 by addition of small amounts of NaO^2H or ^2HCl. Concentration, pH, temperature and use of ferrric citrate were in keeping with the conditions that were employed in earlier examples in order to prevent precipitation of peptide or ferric hydroxide. […] However, the apparent dissociation constants, Kd, for the complexes between ferric ions and the nonapeptide LE5AYG or the octapeptide LE5AY were obtained from the change in chemical shift of the GlulO amide proton on addition of ferric ions, as described above.

A short description of data set [3]: Ferric ion binding to tyrosine-containing Ggly fragments by absorption spectroscopy. The following applies: for Fold Increase in absorbance on addition of ferric ions (maximum): 275 nm; for Fold Increase in absorbance on addition of ferric ions (maximum) / Stiochiom. of ferric ion binding: pH 4.0; for Stiochiom. of ferric ion binding: absorption maximum of 275 nm, 100 μM peptide; for Stoichiometry of binding: titration at 247 nm or 275 nm.

The next data set can be described thus: peptide made by a vendor. The following applies: whole synthesis, HPLC.

For part of these data: HELM strings list residues between dots; [ac] is acetyl, [am] amide, other brackets name non-standard units. Where a SMILES comes first, the peptide text is derived from it. [ ]: non-standard residue; d: D form. pGlu = O=C1CC[C@@H](C(=O)O)N1

For the compound `CSCC[C@H](NC(=O)[C@H](Cc1c[nH]c2ccccc12)NC(=O)CNC(=O)[C@H](Cc1ccc(O)cc1)NC(=O)[C@H](C)NC(=O)[C@H](CCC(=O)O)NC(=O)[C@H](CCC(=O)O)NC(=O)[C@H](CCC(=O)O)NC(=O)[C@H](CCC(=O)O)NC(=O)[C@H](CCC(=O)O)NC(=O)[C@H](CC(C)C)NC(=O)[C@H](Cc1c[nH]c2ccccc12)NC(=O)[C@@H]1CCCN1C(=O)CNC(=O)[C@@H]1CCC(=O)N1)C(=O)N[C@@H](CC(=O)O)C(=O)N[C@@H](Cc1ccccc1)C(N)=O` [Gamide, reference compound], the “Stoichiometry of ferric ion binding (amidated gastrin17 and related peptides)” value in data set [1] is listed as 1.56 ± 0.09. Still for that read-out and setting: for `CSCC[C@H](NC(=O)[C@H](Cc1c[nH]c2ccccc12)NC(=O)CNC(=O)[C@H](Cc1ccc(O)cc1)NC(=O)[C@H](C)NC(=O)[C@H](CCC(=O)O)NC(=O)[C@H](CCC(=O)O)NC(=O)[C@H](CCC(=O)O)NC(=O)[C@H](C)NC(=O)[C@H](CCC(=O)O)NC(=O)[C@H](CC(C)C)NC(=O)[C@H](Cc1c[nH]c2ccccc12)NC(=O)[C@@H]1CCCN1C(=O)CNC(=O)[C@@H]1CCC(=O)N1)C(=O)N[C@@H](CC(=O)O)C(=O)N[C@@H](Cc1ccccc1)C(N)=O` [GamideE7A] ([pGlu]GPWLEAEEEAYGWMDF-NH2) the value was 0.87 ± 0.04; for `CSCC[C@H](NC(=O)[C@H](Cc1c[nH]c2ccccc12)NC(=O)CNC(=O)[C@H](Cc1ccc(O)cc1)NC(=O)[C@H](C)NC(=O)[C@H](CCC(=O)O)NC(=O)[C@H](C)NC(=O)[C@H](C)NC(=O)[C@H](CCC(=O)O)NC(=O)[C@H](CCC(=O)O)NC(=O)[C@H](CC(C)C)NC(=O)[C@H](Cc1c[nH]c2ccccc12)NC(=O)[C@@H]1CCCN1C(=O)CNC(=O)[C@@H]1CCC(=O)N1)C(=O)N[C@@H](CC(=O)O)C(=O)N[C@@H](Cc1ccccc1)C(N)=O` [GamideE8, 9A] ([pGlu]GPWLEEAAEAYGWMDF-NH2), 1.12 ± 0.11. `CSCC[C@H](NC(=O)[C@H](Cc1c[nH]c2ccccc12)NC(=O)CNC(=O)[C@H](Cc1ccc(O)cc1)NC(=O)[C@H](C)NC(=O)[C@H](C)NC(=O)[C@H](C)NC(=O)[C@H](C)NC(=O)[C@H](C)NC(=O)[C@H](C)NC(=O)[C@H](CC(C)C)NC(=O)[C@H](Cc1c[nH]c2ccccc12)NC(=O)[C@@H]1CCCN1C(=O)CNC(=O)[C@@H]1CCC(=O)N1)C(=O)N[C@@H](CC(=O)O)C(=O)N[C@@H](Cc1ccccc1)C(=O)NCC(=O)O` [GglyE6-10A] ([pGlu]GPWLAAAAAAYGWMDFG-OH): in data set [1], the “Stoichiometry of ferric ion binding” value is given as 0.88 ± 0.07. The same measure, in the same setting: for `CSCC[C@H](NC(=O)[C@H](Cc1c[nH]c2ccccc12)NC(=O)CNC(=O)[C@H](Cc1ccc(O)cc1)NC(=O)[C@H](C)NC(=O)[C@H](C)NC(=O)[C@H](C)NC(=O)[C@H](C)NC(=O)[C@H](CCC(=O)O)NC(=O)[C@H](CCC(=O)O)NC(=O)[C@H](CC(C)C)NC(=O)[C@H](Cc1c[nH]c2ccccc12)NC(=O)[C@@H]1CCCN1C(=O)CNC(=O)[C@@H]1CCC(=O)N1)C(=O)N[C@@H](CC(=O)O)C(=O)N[C@@H](Cc1ccccc1)C(=O)NCC(=O)O` [GglyE8-10A] ([pGlu]GPWLEEAAAAYGWMDFG-OH) the value was 1.23 ± 0.08. With EEEEE [Peptide E5], the “Maximum change in chemical shift of Glu9/Glu10 NH resonances on addition of ferric citrate” value in data set [2] was “did not shift the glutamate resonances”.

As to EEEEEAY [Peptide E5AY], in data set [3], the “Fold Increase in absorbance on addition of ferric ions (maximum)” value is on record as 3.5, the “Stiochiom. of ferric ion binding” value was 2.58 and the Stoichiometry of binding entry is “approximately 2 moles ferric ion per mole of peptide”. Also, the “Maximum change in chemical shift of Glu9/Glu10 NH resonances on addition of ferric citrate” value in data set [2] is given as 0.01 ppm. On to “Ggly1-4: fragment of Ggly, residues 1-4, SEQ ID NO:6”, for which the “Binding of ferric ions” value in data set [1] is reported as “No binding”. In the case of “Ggly12-18: C-terminal heptapeptide of Ggly, SEQ ID NO:8 (YGWMDFG; listed as Homo sapiens)”, the “Binding of ferric ions” value in data set [1] is “No binding”. As to “Ggly: glycine-extended gastrin17, 18 amino acid non-amidated gastrin, SEQ ID NO:4, residues 55-72 of progastrin”, in data set [1], the “Stoichiometry of ferric ion binding” value came to 2.09 ± 0.07. The same measure, in the same setting: for “GglyE6A: Ggly mutant, Glu6 replaced by Ala, SEQ ID NO:10” the value was 2.20 ± 0.06; for “GglyE7A: Ggly mutant, Glu7 replaced by Ala, SEQ ID NO:11”, 1.33 ± 0.16. On to LEEEEEA [LE5A], for which the “Maximum change in chemical shift of Glu9/Glu10 NH resonances on addition of ferric citrate” value in data set [2] stood at 0.01 ppm. Regarding LEEEEEAYG [LE5AYG], in data set [3], the “Fold Increase in absorbance on addition of ferric ions (maximum)” value is on record as 2.0, the “Stiochiom. of ferric ion binding” value was found to be 1.93 and the Stoichiometry of binding entry is “approximately 2 moles ferric ion per mole of peptide”. Also, the “Maximum change in chemical shift of Glu9/Glu10 NH resonances on addition of ferric citrate” value in data set [2] came out at 0.06 ppm. PEPTIDE1{L.E.E.E.E.E.A.Y}$$$$V2.0: the “purity (crude or final not stated)” value in “peptide made by a vendor” amounted to 98%.
